The source of these data is the supplement of paper PMC10849652.

Protein sequences, listed by entry. Tags and fused reporters are not part of them. Lines headed by an entry give the natural chain unless they say otherwise; changes in a name come on top.
UniProt P40926: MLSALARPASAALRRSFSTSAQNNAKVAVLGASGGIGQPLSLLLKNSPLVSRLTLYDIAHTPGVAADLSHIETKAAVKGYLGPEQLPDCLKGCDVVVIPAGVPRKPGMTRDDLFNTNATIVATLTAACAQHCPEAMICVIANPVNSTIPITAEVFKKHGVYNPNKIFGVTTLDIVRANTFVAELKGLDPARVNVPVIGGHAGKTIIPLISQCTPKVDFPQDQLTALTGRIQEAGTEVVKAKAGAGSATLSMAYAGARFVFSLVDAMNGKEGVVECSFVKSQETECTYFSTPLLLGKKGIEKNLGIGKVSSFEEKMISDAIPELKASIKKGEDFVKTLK
UniProt Q9BV79: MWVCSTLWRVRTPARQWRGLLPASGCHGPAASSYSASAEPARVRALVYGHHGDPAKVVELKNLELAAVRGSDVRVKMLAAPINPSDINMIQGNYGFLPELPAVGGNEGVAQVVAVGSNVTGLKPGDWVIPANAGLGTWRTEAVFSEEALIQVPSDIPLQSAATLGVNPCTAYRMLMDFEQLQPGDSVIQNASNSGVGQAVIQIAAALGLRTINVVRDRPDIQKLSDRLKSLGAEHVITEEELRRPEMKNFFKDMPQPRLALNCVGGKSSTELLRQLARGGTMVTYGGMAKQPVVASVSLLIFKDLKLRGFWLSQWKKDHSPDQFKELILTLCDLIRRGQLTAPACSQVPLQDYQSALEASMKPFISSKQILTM
UniProt Q6UB28: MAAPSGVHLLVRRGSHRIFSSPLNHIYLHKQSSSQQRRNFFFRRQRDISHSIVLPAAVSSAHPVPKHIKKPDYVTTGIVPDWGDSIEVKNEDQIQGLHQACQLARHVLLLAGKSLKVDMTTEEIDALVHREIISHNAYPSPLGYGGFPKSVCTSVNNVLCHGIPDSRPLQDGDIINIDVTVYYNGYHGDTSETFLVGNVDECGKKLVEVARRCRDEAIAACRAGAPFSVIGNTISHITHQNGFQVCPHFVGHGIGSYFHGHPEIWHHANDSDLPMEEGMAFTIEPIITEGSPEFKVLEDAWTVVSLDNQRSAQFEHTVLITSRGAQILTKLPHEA
UniProt Q5TF39: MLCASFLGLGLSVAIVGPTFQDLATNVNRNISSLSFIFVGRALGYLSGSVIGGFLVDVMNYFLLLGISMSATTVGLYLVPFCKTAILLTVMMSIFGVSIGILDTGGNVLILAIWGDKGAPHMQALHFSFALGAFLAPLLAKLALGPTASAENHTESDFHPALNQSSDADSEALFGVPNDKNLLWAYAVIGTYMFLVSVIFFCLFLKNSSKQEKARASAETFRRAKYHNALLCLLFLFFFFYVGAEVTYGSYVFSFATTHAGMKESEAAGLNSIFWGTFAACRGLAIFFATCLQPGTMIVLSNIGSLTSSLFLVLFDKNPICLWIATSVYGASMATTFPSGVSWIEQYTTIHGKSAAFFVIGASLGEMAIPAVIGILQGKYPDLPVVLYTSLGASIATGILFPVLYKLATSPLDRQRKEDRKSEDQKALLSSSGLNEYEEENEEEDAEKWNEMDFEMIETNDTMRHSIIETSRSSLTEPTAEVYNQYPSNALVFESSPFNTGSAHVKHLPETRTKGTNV
UniProt O95140: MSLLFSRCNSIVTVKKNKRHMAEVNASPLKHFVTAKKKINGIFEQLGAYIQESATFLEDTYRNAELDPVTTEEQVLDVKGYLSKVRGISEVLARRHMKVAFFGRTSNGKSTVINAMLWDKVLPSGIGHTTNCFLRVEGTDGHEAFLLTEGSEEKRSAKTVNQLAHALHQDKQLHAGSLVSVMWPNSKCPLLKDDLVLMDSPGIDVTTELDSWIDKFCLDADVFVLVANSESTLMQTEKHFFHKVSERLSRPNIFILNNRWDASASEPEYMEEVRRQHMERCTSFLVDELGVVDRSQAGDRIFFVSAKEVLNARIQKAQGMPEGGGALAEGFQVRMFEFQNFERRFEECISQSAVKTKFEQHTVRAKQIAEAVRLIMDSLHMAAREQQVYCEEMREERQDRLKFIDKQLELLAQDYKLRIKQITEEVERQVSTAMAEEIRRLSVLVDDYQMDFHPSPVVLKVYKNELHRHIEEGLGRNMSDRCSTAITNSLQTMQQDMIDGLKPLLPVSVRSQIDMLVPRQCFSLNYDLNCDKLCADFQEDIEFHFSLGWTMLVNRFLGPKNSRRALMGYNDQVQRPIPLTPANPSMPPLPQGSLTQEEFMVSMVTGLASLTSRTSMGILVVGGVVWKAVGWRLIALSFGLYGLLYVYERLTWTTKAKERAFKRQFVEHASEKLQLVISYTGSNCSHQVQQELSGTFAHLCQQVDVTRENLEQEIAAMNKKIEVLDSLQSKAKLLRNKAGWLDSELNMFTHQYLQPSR
UniProt Q96G25: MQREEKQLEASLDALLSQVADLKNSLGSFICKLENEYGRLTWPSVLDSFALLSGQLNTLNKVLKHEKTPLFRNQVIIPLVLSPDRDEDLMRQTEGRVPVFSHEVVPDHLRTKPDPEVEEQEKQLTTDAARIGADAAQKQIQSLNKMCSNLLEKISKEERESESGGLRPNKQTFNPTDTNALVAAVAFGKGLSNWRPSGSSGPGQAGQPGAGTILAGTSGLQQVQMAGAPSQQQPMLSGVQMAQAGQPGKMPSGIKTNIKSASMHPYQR
UniProt Q06413, whole entry, looked up: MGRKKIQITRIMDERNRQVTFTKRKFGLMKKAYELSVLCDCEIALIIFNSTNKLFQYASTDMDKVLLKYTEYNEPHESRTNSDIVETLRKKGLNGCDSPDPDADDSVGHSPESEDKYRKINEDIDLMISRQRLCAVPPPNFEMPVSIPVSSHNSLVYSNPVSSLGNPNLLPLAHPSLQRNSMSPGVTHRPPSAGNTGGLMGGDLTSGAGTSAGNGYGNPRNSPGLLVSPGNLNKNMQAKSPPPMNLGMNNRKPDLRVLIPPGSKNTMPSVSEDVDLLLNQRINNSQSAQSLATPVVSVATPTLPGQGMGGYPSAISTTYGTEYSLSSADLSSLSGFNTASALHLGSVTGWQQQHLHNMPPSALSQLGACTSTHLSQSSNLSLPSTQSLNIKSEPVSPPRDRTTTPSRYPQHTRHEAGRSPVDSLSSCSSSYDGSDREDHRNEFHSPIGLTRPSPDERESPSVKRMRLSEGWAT
UniProt P50579: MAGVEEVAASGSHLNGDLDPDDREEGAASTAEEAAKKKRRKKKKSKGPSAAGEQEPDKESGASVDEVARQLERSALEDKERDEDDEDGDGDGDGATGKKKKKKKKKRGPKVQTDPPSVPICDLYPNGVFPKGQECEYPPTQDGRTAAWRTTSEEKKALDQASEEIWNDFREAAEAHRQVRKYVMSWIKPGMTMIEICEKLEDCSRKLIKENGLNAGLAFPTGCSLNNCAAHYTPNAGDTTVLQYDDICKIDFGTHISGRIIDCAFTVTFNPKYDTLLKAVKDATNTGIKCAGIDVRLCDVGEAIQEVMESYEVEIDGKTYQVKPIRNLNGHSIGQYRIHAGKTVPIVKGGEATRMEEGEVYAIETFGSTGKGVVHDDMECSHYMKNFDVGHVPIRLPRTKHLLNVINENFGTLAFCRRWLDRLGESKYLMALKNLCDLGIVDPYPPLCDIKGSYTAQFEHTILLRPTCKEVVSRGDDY
UniProt O95983: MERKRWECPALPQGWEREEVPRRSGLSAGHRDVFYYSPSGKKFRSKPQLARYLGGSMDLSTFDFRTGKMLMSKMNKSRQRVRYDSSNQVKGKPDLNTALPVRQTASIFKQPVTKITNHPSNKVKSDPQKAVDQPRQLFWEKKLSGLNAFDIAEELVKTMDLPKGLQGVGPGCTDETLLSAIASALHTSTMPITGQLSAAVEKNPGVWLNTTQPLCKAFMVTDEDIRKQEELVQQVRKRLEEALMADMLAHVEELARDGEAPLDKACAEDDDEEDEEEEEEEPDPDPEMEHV
UniProt Q9UBB5, whole entry, looked up: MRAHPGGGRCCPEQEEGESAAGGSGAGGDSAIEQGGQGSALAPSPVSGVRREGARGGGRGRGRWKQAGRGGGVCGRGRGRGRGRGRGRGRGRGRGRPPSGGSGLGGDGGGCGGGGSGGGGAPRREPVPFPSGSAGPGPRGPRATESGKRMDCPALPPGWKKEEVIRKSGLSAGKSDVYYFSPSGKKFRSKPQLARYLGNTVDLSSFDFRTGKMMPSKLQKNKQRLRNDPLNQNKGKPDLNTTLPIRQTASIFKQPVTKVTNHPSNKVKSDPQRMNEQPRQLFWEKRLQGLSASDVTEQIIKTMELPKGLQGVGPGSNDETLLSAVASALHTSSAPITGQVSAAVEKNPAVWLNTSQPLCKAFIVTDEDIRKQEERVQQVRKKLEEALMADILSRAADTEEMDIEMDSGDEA
UniProt Q16798: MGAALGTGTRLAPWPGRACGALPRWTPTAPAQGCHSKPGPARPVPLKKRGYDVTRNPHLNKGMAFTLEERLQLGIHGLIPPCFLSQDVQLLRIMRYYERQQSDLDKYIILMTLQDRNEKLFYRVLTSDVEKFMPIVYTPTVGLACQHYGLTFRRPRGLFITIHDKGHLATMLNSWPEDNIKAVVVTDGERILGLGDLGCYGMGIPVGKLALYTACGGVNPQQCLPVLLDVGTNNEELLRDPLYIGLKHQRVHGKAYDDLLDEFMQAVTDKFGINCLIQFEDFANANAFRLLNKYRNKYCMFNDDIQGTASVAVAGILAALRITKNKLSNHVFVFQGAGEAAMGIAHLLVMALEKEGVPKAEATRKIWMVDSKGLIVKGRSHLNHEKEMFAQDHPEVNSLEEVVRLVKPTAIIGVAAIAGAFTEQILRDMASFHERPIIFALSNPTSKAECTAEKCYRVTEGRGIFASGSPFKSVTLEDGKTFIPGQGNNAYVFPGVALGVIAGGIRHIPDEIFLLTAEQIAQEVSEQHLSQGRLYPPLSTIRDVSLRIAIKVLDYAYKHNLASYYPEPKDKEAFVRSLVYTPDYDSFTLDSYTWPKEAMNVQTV
UniProt P33991: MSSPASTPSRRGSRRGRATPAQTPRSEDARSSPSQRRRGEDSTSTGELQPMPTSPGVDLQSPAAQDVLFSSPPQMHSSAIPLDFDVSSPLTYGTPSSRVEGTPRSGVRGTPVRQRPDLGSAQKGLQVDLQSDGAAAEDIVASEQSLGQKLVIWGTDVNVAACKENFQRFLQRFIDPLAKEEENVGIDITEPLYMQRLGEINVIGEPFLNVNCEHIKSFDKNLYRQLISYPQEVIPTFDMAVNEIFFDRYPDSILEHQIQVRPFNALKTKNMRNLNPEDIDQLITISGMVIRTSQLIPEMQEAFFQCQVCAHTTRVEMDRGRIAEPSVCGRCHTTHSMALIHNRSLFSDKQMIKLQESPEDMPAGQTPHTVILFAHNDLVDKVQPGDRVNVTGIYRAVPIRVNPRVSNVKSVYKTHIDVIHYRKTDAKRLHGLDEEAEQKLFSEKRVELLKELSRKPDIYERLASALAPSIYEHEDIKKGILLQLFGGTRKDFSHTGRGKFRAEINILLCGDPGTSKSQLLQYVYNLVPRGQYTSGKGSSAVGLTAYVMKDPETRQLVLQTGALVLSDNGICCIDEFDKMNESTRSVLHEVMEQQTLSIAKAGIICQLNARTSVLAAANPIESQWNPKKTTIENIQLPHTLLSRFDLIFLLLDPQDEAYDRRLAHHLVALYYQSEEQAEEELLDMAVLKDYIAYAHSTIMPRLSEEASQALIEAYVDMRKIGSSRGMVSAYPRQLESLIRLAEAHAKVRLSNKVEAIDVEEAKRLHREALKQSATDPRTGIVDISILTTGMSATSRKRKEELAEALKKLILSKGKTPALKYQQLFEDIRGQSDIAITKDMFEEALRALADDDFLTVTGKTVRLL
UniProt Q16626: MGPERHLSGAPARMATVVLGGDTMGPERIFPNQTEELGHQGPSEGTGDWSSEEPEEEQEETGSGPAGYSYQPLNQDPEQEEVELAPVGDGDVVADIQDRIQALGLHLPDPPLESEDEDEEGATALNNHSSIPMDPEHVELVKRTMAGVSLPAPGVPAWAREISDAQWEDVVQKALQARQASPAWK
UniProt Q96HR3: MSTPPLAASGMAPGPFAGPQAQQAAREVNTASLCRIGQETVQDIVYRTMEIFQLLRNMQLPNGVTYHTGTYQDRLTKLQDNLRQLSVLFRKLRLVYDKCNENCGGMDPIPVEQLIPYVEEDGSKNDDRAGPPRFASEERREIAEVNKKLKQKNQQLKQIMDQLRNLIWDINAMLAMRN
UniProt Q14814: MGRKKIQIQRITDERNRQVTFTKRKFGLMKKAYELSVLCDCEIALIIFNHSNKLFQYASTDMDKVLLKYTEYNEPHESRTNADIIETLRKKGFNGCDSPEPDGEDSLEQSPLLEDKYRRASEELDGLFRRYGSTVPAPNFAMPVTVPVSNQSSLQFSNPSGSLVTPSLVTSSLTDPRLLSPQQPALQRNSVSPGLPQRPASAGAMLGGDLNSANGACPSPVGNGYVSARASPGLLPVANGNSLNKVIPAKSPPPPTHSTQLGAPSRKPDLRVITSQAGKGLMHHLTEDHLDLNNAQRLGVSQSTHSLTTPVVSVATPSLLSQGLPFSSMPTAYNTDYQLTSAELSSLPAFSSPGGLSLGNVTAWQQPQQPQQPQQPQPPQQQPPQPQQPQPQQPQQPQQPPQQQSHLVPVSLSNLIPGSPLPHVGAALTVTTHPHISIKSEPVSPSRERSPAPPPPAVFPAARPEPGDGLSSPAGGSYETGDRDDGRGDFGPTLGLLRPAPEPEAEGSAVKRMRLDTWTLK

The other results are listed elsewhere or left out.

Compound in one test: Cn1cc(CNCC2CCN(c3ncc(C(=O)NO)cn3)CC2)c2ccccc21 [quisinostat]
In words: log2 fold change, soluble protein after heating vs DMSO (PISA); higher = thermal stabilisation; K562 lysate, 10 uM; active = over 0.2 and 3.5 SD of the protein, either way, in both replicates (recomputed). In a few lines:
(§1)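 Values give the log-two fold change in thermal stability against solvent controls, from duplicates. Crude K562 extract at 1 mg/mL protein, made by dounce homogenisation in PBS pH 7.4 with 1 mM MgCl2, was treated with 10 μM compound for 30 min. After 3 min heating across 48°C-58°C, aliquots were pooled, adjusted to 0.5% NP-40 at 4°C and centrifuged at 21,000xg for 90 min. The supernatant was measured by TMTpro 16plex LC-MS/MS with channel sums equalised.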
As to MCMBP (UniProt Q9BTE3), the log2 fold change is inactive: -0.039.
For MED20 (UniProt Q9H944), the log2 fold change is inactive: -0.01.
METTL5 (UniProt Q9NRN9): the log2 fold change is inactive: -0.026.
With MDH2 (UniProt P40926), the log2 fold change was inactive: 0.002.
As for METTL14 (UniProt Q9HCE5), the log2 fold change was inactive: 0.
On to MECR (UniProt Q9BV79), for which the log2 fold change was inactive: 0.07.
Turning to METAP1D (UniProt Q6UB28), the log2 fold change is inactive: 0.046.
MEF2A (UniProt Q02078): the log2 fold change is inactive: -0.042.
MFSD10 (UniProt Q14728): the log2 fold change is inactive: -0.041.
On to MCL1 (UniProt Q07820), for which the log2 fold change was inactive: -0.066.
MCM6 (UniProt Q14566): the log2 fold change was inactive: 0.019.
As to MED7 (UniProt O43513), the log2 fold change was inactive: -0.015.
Regarding MFSD4B (UniProt Q5TF39), the log2 fold change was inactive: 0.282.
Still for that read-out and setting: as for ME2 (UniProt P23368), the figure is inactive: -0.022; as for METTL2A (UniProt Q96IZ6), inactive: -0.042.
On the same count and under the same terms, next, MFN2 (UniProt O95140): inactive: -0.017; MED8 isoform 2 (UniProt Q96G25): inactive: -0.043.
On to MED4 (UniProt Q9NPJ6), for which the log2 fold change is inactive: -0.005.
For the target METTL16 (UniProt Q86W50), the log2 fold change is inactive: 0.04.
For MEF2C isoform 5 (UniProt Q06413), the log2 fold change was inactive: -0.018.
On to MCUR1 (UniProt Q96AQ8), for which the log2 fold change was inactive: 0.004.
Still for that read-out and setting: next, METAP2 (UniProt P50579): inactive: -0.016; MBD3 (UniProt O95983): inactive: 0.045.
As for MBD2 (UniProt Q9UBB5), the log2 fold change was inactive: -0.014.
MED15 (UniProt Q96RN5): the log2 fold change is inactive: 0.
On to MCFD2 (UniProt Q8NI22), for which the log2 fold change is inactive: 0.169.
The same measure, in the same setting: next, MCM2 (UniProt P49736): inactive: 0.011; MEAF6 isoform 3 (UniProt Q9HAF1): inactive: -0.092.
ME3 (UniProt Q16798): the log2 fold change is inactive: -0.129.
As for MECP2 isoform 2 (UniProt P51608), the log2 fold change is inactive: -0.045.
Turning to MBOAT2 (UniProt Q6ZWT7), the log2 fold change is inactive: -0.042.
Consider MCM4 (UniProt P33991), for which the log2 fold change is inactive: -0.028.
Take MEA1 (UniProt Q16626): the log2 fold change is inactive: -0.043.
MFAP1 (UniProt P55081): the log2 fold change was inactive: 0.108.
With MED30 (UniProt Q96HR3), the log2 fold change was inactive: -0.049.
Consider METTL3 (UniProt Q86U44), for which the log2 fold change is inactive: 0.012.
On the same count and under the same terms, as for MCRIP1 (UniProt I3L4Q0), the figure is inactive: -0.126; as for MCRIP2 (UniProt Q9BUT9), inactive: -0.113; as for MEF2D (UniProt Q14814), inactive: 0.085.
For MESD (UniProt Q14696), the log2 fold change was inactive: 0.057.

Compound in another test: Cn1cncc1[C@@](N)(c1ccc(Cl)cc1)c1ccc2c(c1)c(-c1cccc(Cl)c1)cc(=O)n2C [tipifarnib]
The description is as above. In a few lines:
as §1
Consider MCMBP (UniProt Q9BTE3), for which the log2 fold change was inactive: 0.024.
On the same count and under the same terms, as for MED20 (UniProt Q9H944), the figure is inactive: 0.003; as for METTL5 (UniProt Q9NRN9), inactive: 0.015; as for MDH2 (UniProt P40926), inactive: 0.009.
For the target METTL14 (UniProt Q9HCE5), the log2 fold change is inactive: 0.041.
In the case of MECR (UniProt Q9BV79), the log2 fold change was inactive: -0.009.
METAP1D (UniProt Q6UB28): the log2 fold change is inactive: -0.014.
On to MEF2A (UniProt Q02078), for which the log2 fold change was inactive: 0.03.
As to MFSD10 (UniProt Q14728), the log2 fold change is inactive: -0.097.
As to MCL1 (UniProt Q07820), the log2 fold change is inactive: -0.125.
As to MCM6 (UniProt Q14566), the log2 fold change is inactive: 0.004.
For MED7 (UniProt O43513), the log2 fold change is inactive: 0.077.
For MFSD4B (UniProt Q5TF39), the log2 fold change is inactive: -0.367.
Still for that read-out and setting: next, ME2 (UniProt P23368): inactive: 0.023; METTL2A (UniProt Q96IZ6): inactive: 0.01; MFN2 (UniProt O95140): inactive: -0.039.
As to MED8 isoform 2 (UniProt Q96G25), the log2 fold change was inactive: 0.081.
As to MED4 (UniProt Q9NPJ6), the log2 fold change was inactive: -0.054.
Regarding METTL16 (UniProt Q86W50), the log2 fold change was inactive: -0.03.
Consider MEF2C isoform 5 (UniProt Q06413), for which the log2 fold change is inactive: -0.08.
MCUR1 (UniProt Q96AQ8): the log2 fold change is inactive: -0.008.
Turning to METAP2 (UniProt P50579), the log2 fold change was inactive: 0.01.
On the same count and under the same terms, next, MBD3 (UniProt O95983): inactive: -0.004.
As for MBD2 (UniProt Q9UBB5), the log2 fold change is inactive: -0.011.
MED15 (UniProt Q96RN5): the log2 fold change is inactive: 0.007.
On to MCFD2 (UniProt Q8NI22), for which the log2 fold change is inactive: 0.101.
On the same count and under the same terms, as for MCM2 (UniProt P49736), the figure is inactive: -0.003; as for MEAF6 isoform 3 (UniProt Q9HAF1), inactive: 0.012.
Consider ME3 (UniProt Q16798), for which the log2 fold change was inactive: -0.041.
As for MECP2 isoform 2 (UniProt P51608), the log2 fold change is inactive: -0.003.
Same read-out and setting: as for MBOAT2 (UniProt Q6ZWT7), the figure is inactive: 0.12; as for MCM4 (UniProt P33991), inactive: -0.027; as for MEA1 (UniProt Q16626), inactive: 0.044.
On the same count and under the same terms, next, MFAP1 (UniProt P55081): inactive: 0.006; MED30 (UniProt Q96HR3): inactive: 0.009.
As to METTL3 (UniProt Q86U44), the log2 fold change is inactive: 0.014.
MCRIP1 (UniProt I3L4Q0): the log2 fold change is inactive: -0.032.
Regarding MCRIP2 (UniProt Q9BUT9), the log2 fold change is inactive: -0.036.
Take MEF2D (UniProt Q14814): the log2 fold change was inactive: -0.032.
For the target MESD (UniProt Q14696), the log2 fold change is inactive: -0.005.
